Data published in PubChem BioAssay AID1794845 (National Center for Advancing Translational Sciences (NCATS), 2023).
The whole screen tested about 6,900 compounds, of which fewer than 10 were called active. The call rests on the fitted dose curve; in most records, active means well fitted curve in the direction sought with a large enough effect; inconclusive means small, poorly fitted or top-dose-only effect, or another doubt; inactive means no such curve, though single readings can be large or run the other way. The list shows a part of the results.

Sequences of proteins named here, by UniProt entry; tags and fusion partners are left off. A change or cut given only in a name is not applied to a line headed by its entry.
UniProt C7C422: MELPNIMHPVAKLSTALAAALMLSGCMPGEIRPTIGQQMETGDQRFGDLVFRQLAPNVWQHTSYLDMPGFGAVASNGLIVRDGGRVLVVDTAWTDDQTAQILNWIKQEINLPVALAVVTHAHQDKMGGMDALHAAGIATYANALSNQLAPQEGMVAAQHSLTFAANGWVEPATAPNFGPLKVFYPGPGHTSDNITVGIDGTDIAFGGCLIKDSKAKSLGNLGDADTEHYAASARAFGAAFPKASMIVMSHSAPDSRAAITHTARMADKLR

Target: Metallo-beta-lactamase type 2 (Klebsiella pneumoniae) (UniProt C7C422)
Assay: qHTS to identify inhibitors of the New Delhi Metallo-beta-lactamase (NDM): primary screen against the NCATS Gemini Collection; further: % of control where 0% means no effect
Conditions: NDM-1 enzyme, meropenem hydrolysis, absorbance 300 nm; at 38.4 µM (top of the series) unless noted
Method in brief: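 NDM-1 at 2 nM final in 50 mM HEPES pH 7.0, 1 uM ZnSO4, 0.01% Tween20, preincubated >30 min with compound. Meropenem 50 uM final added; absorbance at 300 nm after 30 min.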

Activity % (negative = inhibition), inactive:
Cc1nn2c(c1-c1ccccc1C(C)C)N(Cc1ccc(C(=O)O)s1)CCC2 25.9% [at 57.5 µM]
COc1cc2c(cc1-c1ccc(S(C)(=O)=O)cc1)OCC(C)(C)CC2CO (stereo unspecified) 9.6%
Cc1noc(C)c1-c1cc(-c2ccncc2)cn2cncc12 5.15% [at 77.1 µM]
COCc1ccc2c(c1)c(OC(C)(C)C(=O)NCC1CCOCC1)nn2Cc1ccccc1 0.585%
C[C@H]1[C@@H]2[C@@H](O)C([C@H](C)C(=O)NCc3ccc(F)cc3)CC[C@@]2(C)CC[C@@H]1NC(=O)Cc1ccccc1 (stereo partly specified) -10.4%
COc1ccc(CCN2CCC(CN(C)C(=O)C3CCCCO3)CC2)cc1 (stereo unspecified) -3.11%
CNc1nc2c(s1)C[C@]1(C)CCC([C@H](C)C(=O)N3CCSCC3)[C@H](O)[C@H]1[C@@H]2C (stereo partly specified) -6.32% [at 57.5 µM]
O=C(c1ccccc1)N1CCCN(c2nc3ncccc3o2)CC1 19.8% [at 57.5 µM]
CCCNC(=O)N1CC(Oc2ccc(-c3nc(C)no3)cc2)C1 17%
COc1ccc(CNC(=O)C[C@@H]2O[C@H](CNCc3cccc(Cl)c3)[C@@H](O)[C@H]2O)cc1 3.73% [at 57.5 µM]
Cc1[nH]ccc1C(=O)N(CCN1CCCCC1)CC1CCCN(C2CCCC2)C1 (stereo unspecified) -3.84%
CN1c2cccnc2CN(Cc2ccccc2Cl)CC[C@H]1CO 7.27% [at 57.5 µM]
CC1(C)[C@H]2CC=C(CN3CCC(CCC(=O)N4CCN(c5ccccc5)CC4)CC3)[C@@H]1C2 0.948%
COc1ccc(-n2cccn2)c(CN2CC[C@H](CO)[C@H](O)C2)c1 2.9%
COc1ccc(-c2nc3cnccn3c2NCCC(=O)N2CCCC(C)C2)cc1 (stereo unspecified) 7.69%
Cc1ccc(OCC(=O)c2ccc3c(c2)N(CCCC(=O)N2CCCC2)C(=O)CO3)cc1C 2.05%
CCCn1c(C)cnc1C1CCNC1 (stereo unspecified) 6.78%
CC(=O)N1CCN([C@H]2[C@@H]3OC[C@@H](O3)[C@@H](NCc3ccccc3O)[C@@H]2O)CC1 9.78% [at 57.5 µM]
Cn1cc(-c2ccc3c(n2)CN(Cc2ccc(F)cc2)C(=O)CO3)cn1 8.04% [at 57.5 µM]
O=C(NCCN1CCCCC1)[C@H]1C[C@@H](O)[C@H](O)[C@@H]2N=C(Nc3ccc4c(c3)OCO4)S[C@@H]21 -1.55%
Cc1ncnc(N2CCN(C(=O)C3CCN(C(=O)C4CC4)CC3)CC2)c1C 7.66%
CC(C)NC[C@H]1O[C@@H](CO)[C@@H](O)[C@H]1N1CCN(C)CC1 69.6% [at 57.5 µM]
Cc1cccc(C(=O)Nc2c(N3CCCCC3)c(-c3cccc(F)c3)nn2C)c1 -0.0433%
COC(=O)c1ccccc1C(=O)N1CCNC(=O)C1Cc1ccccc1 (stereo unspecified) 2.16%
NC(=O)C1CCN(C(=O)[C@H]2C[C@@H](O)[C@H](O)[C@@H]3N=C(Nc4cccc(C(F)(F)F)c4)S[C@@H]32)CC1 -1.87%
CCC[C@H]1CN(C(=O)CCc2ccccc2C)C[C@@H]1N 2.84%
O=C(O)CC1C(=O)NCCN1C1Cc2ccccc2C1 (stereo unspecified) -2.18%
O=C(NC1CCN(c2cc(-c3ccc(Cl)cc3)[nH]n2)C1)c1ccc(Br)o1 (stereo unspecified) 1.07%
CC(=O)N1CCN(c2nc3c(s2)CC(C(=O)Nc2cc(Cl)ccc2F)CC3)CC1 (stereo unspecified) 13.7%
FC(F)(F)c1ccc(CN2CCC3(CC(c4cccc(C(F)(F)F)c4)=NO3)C2)cc1 (stereo unspecified) 44.2%
O=C(NCc1cccc(Cl)c1)c1cnc2c(c1)N(C(=O)Cc1ccc(O)cc1)CCC2 1.04% [at 57.5 µM]
CNc1nc(C(=O)N2CCC3(CCC(=O)N(CC4CCCO4)C3)CC2)cs1 (stereo unspecified) -10.2%
Cn1cc(CN[C@H]2C[C@H]3C(=O)NC[C@@H](CCC(=O)NCc4ccccc4)N3C2)c2ccccc21 1.89%
CO[C@H]1C(=O)N(C(C)C)[C@H]1C1CCN(S(=O)(=O)c2ccc3c(c2)CCC3)CC1 -3.73%
Cc1cc(C(=O)NCC2CCCN(Cc3nnc(-c4cccnc4)o3)C2)no1 (stereo unspecified) -0.307%
CN(C)Cc1cn(C[C@H]2C[C@@H](NC(=O)Nc3ccc4c(c3)OCCO4)[C@H](O)[C@@H]2O)nn1 7.24%
O=C(O)c1ccc(CC2CCN(Cc3ccccn3)C2)cc1 (stereo unspecified) 18.1%
N#Cc1ccccc1CN1CCNc2nc(CNCc3ccccc3)n(Cc3ccccc3)c2C1=O 19.3%
CCn1ncc(CN2CCC3(CCC3OC)CC2)c1C (stereo unspecified) -3.26%
O=C(Nc1ccc(Cl)nc1)c1ccc2ccnn2c1 42.1% [at 57.5 µM]
CN1C[C@H](O)C[C@H]1c1nnc2n1CCN(S(=O)(=O)c1ccccc1)CC2 9.86%
O=C(c1ccc(F)cc1)N1CCC(C(=O)N2CCCC(c3nc4ccncc4[nH]3)C2)CC1 (stereo unspecified) 2.95%
Cc1ncccc1C(=O)N1CC[C@@H]2COCCN(Cc3ccncc3)[C@@H]2C1 13.7%
COc1ccc(Nc2ccnc(N3CCCC(C(=O)NCc4ccc(F)cc4)C3)n2)cc1 (stereo unspecified) 32.4%
CN(C)C[C@@H]1CN(C)C[C@H]1NS(=O)(=O)c1ccccc1F 15.9%
CC(C)(C)n1nnnc1C1CC2(CCOCC2)C(=O)N1Cc1cccs1 (stereo unspecified) 14.4%
CCc1noc(-c2ccn3c(CNC(=O)Cc4c[nH]c5ccccc45)nnc3c2)n1 2.29%
CC1(NC(=O)C2CC2)CN(Cc2nc(-c3ccccc3OCc3ccccc3)cs2)C1 3.21% [at 57.5 µM]
O=C(c1cccs1)N1CCC2(CC1)CN(C1CCC1)CC2CO (stereo unspecified) -6.74%
C=CCN1CCN(C(=O)C2N(c3ccc(OC)cc3)C(=O)C23CCCCC3)CC1 (stereo unspecified) 12.6%
COCCN1CC(CO)C2(CCN(C3CCC3)CC2)C1 (stereo unspecified) -5.91%

Grouped by structure, the entries above with a CF3 group.
Activity % (negative = inhibition), inactive:
NC(=O)C1CCN(C(=O)[C@H]2C[C@@H](O)[C@H](O)[C@@H]3N=C(Nc4cccc(C(F)(F)F)c4)S[C@@H]32)CC1 -1.87%
FC(F)(F)c1ccc(CN2CCC3(CC(c4cccc(C(F)(F)F)c4)=NO3)C2)cc1 (stereo unspecified) 44.2%
